{
  "source": "PubChem BioAssay AID540256",
  "about": "(National Center for Advancing Translational Sciences (NCATS), 2011)",
  "note": "In all, about 300,000 compounds went through this assay and about 3,700 (1.2%) were called active. The shares of active, inactive and inconclusive entries below differ from those in the screen. Calls follow the shape of the full dose curve; tested in HEK293 cells. Potencies beside an inconclusive call are fits to weak or partial responses and may not hold up. % is scaled to controls: 0 for no effect and ±100 for the full control effect; potency is read from the fitted curve at half-maximal effect.",
  "data": [
    {"experiment": "qHTS for Inhibitors of binding or entry into cells for Lassa Virus; also: nearly all actives have a fitted effect of over 50% in size", "conditions": "Lassa virus pseudotype entry inhibition, cell reporter; activity change, negative = inhibition: at 37.9 µM (top of the series) unless noted", "values": [
      {"smiles": "COC(=O)c1ccc2c(=O)n(CCCCCC(=O)N3CCN(c4cc(Cl)ccc4C)CC3)c(=O)[nH]c2c1", "Potency": "inconclusive: 7.94 µM [inhibitor, partial curve, poor fit]"},
      {"smiles": "COc1ccc(-c2noc(CSc3nnc(Cc4ccccc4)n3-c3ccc(Cl)cc3)n2)cc1", "Potency": "active: 4.11 µM"},
      {"smiles": "Cc1cccc(N(Cc2ccccc2F)S(C)(=O)=O)c1", "activity change, negative = inhibition": "inactive: 5.6%"},
      {"smiles": "CCOc1ccc(-c2ccc(SCC)nn2)cc1", "Potency": "inconclusive: 11.2 µM [inhibitor, single point]"},
      {"smiles": "CCn1c(N2CCN(CC(=O)c3c(C)n(C)c4ccc(OC)cc34)CC2)nc2c1c(=O)[nH]c(=O)n2C", "Potency": "inconclusive: 0.316 µM [inhibitor, full curve, poor fit]"},
      {"smiles": "Cc1nn(-c2ccccc2)c(N2CCCC2)c1/C=N/NC(=O)c1cccc(S(=O)(=O)Nc2ccc(Cl)cc2)c1", "Potency": "inconclusive: 12.6 µM [inhibitor, partial curve]"},
      {"smiles": "CN(C(=O)c1ccc2c(c1)SC1=NS(=O)(=O)CCN12)C(c1ccccc1)c1ccccc1", "Potency": "inconclusive: 23.1 µM [inhibitor, single point]"},
      {"smiles": "CC(C)(C)C(=O)Nc1cc2nn(-c3ccccc3)nc2cc1Cl", "Potency": "active: 1.46 µM"},
      {"smiles": "CC(Cc1cccnc1)NC(=O)c1cc(COc2ccc(F)cc2Cl)on1", "note": "(centres undefined)", "activity change, negative = inhibition": "inactive: -11.2%"},
      {"smiles": "CC1=CC(C)(C)N(S(=O)(=O)c2ccc(C)cc2)c2cc(C)ccc21", "Potency": "inconclusive: 0.461 µM [inhibitor, full curve]"},
      {"smiles": "Cc1cccc(C(=O)NC(=S)NCc2ccccc2)c1", "Potency": "active: 17.8 µM"},
      {"smiles": "COc1ccc(Cl)cc1NC(=O)CN(C)C(=O)CN1C(=O)NC2(CCCC2)C1=O", "Potency": "inconclusive: 35.5 µM [activator, single point]"},
      {"smiles": "COc1ccc(C(=O)N2c3ccccc3C(=O)OC2c2ccc3c(c2)OCO3)cc1", "note": "(centres undefined)", "Potency": "inconclusive: 12.6 µM [inhibitor, partial curve, poor fit]"},
      {"smiles": "CCc1nnc(NC(=O)C2Cc3ccccc3CN2S(=O)(=O)c2cccs2)s1", "note": "(centres undefined)", "activity change, negative = inhibition": "inactive: 18.5%"},
      {"smiles": "OCCC1CN(Cc2ccc3c(c2)CCO3)CCN1C1CCCC1", "note": "(centres undefined)", "activity change, negative = inhibition": "inactive: -13% [at 46.1 µM]"},
      {"smiles": "Cc1c([N+](=O)[O-])nnn1-c1cc(Cl)cc(Cl)c1", "activity change, negative = inhibition": "inactive: 4.35% [at 46.1 µM]"},
      {"smiles": "Cc1nc(-c2c(-c3ccc(O)cc3O)noc2C(F)(F)F)cs1", "Potency": "inconclusive: 17.8 µM [inhibitor, single point]"},
      {"smiles": "CC(c1ccccc1)n1c(SCC(=O)N2CC(=O)Nc3ccccc32)nc2ccccc2c1=O", "note": "(centres undefined)", "Potency": "inconclusive: 11.2 µM [inhibitor, partial curve, poor fit]"},
      {"smiles": "COc1ccc(CNC(=O)c2cc(-c3ccc(C)c(C)c3)n[nH]2)cc1", "Potency": "inconclusive: 3.16 µM [inhibitor, full curve]"},
      {"smiles": "CCN1CCN(Cc2cc(Br)cc(Br)c2O)CC1", "activity change, negative = inhibition": "inactive: -3.03%"},
      {"smiles": "Cc1ccc(NC(=O)c2nnn(-c3ccc4c(c3)OCCO4)c2N)cc1", "Potency": "inconclusive: 35.5 µM [inhibitor, single point]"},
      {"smiles": "CCc1ccccc1Nc1cc(C(=O)NC2CCC(C)CC2)c2ccccc2n1", "note": "(centres undefined)", "Potency": "inconclusive: 12.6 µM [activator, single point]"},
      {"smiles": "CCOC(=O)c1c2c3c(c(Cl)ccc3[nH]c1=O)C(=O)c1ccccc1-2", "activity change, negative = inhibition": "inactive: -22.2% [at 46.1 µM]"},
      {"smiles": "CCCCNC(=S)NCc1ccc2[nH]c(C)cc2c1", "Potency": "inconclusive: 14.6 µM [inhibitor, partial curve, poor fit]"},
      {"smiles": "Cc1ccc(Cn2c(CNS(=O)(=O)c3ccc(Cl)s3)nc3cccnc32)cc1", "activity change, negative = inhibition": "inactive: 28.6% [at 46.1 µM]"},
      {"smiles": "CCOC(=O)c1ccc(NS(=O)(=O)c2cc(Br)cc3c2N(C(C)=O)C(C)C3)cc1", "note": "(centres undefined)", "activity change, negative = inhibition": "inactive: -9.13% [at 46.1 µM]"},
      {"smiles": "CCN(CCCNC(=O)c1nn(-c2ccc(OC)c(Cl)c2)c(=O)c2c1c1ccccc1n2C)c1cccc(C)c1", "Potency": "inconclusive: 8.91 µM [activator, partial curve, poor fit]"},
      {"smiles": "O=C(O)c1[nH]c2ccc(Cl)cc2c1CC(=O)N1CCN(C(=O)c2ccco2)CC1", "activity change, negative = inhibition": "inactive: 9.99%"},
      {"smiles": "CCOC(=O)C(=O)Nc1c(C(=O)Nc2cccc(F)c2)oc2ccccc12", "activity change, negative = inhibition": "inactive: 14.2% [at 46.1 µM]"},
      {"smiles": "COc1ccc(S(=O)(=O)N2CCOC2CNC(=O)C(=O)NCCCc2ccccc2)cc1", "note": "(centres undefined)", "Potency": "inconclusive: 14.1 µM [inhibitor, single point]"},
      {"smiles": "COC(=O)c1ccc(N2C(=O)CC(SCCN)C2=O)cc1", "note": "(centres undefined)", "activity change, negative = inhibition": "inactive: 11.4%"},
      {"smiles": "Cc1nc(-c2ccc3c(c2)OCCO3)cs1", "Potency": "inconclusive: 3.55 µM [activator, partial curve, poor fit]"},
      {"smiles": "COc1ccc(NS(=O)(=O)c2ccc3oc(Nc4ccc5c(c4)OCCO5)nc3c2)cc1", "Potency": "inconclusive: 15.8 µM [inhibitor, single point]"},
      {"smiles": "CCN(CC)S(=O)(=O)c1ccc(C(C)NC(=O)Cc2c[nH]c3ccccc23)cc1", "note": "(centres undefined)", "Potency": "active: 2.59 µM"},
      {"smiles": "Cc1cc(NC(=O)CSc2nc(C(C)C)nc3sc(C)c(C)c23)no1", "Potency": "inconclusive: 18.3 µM [inhibitor, single point]"},
      {"smiles": "COc1ccc(C(C)NC(=O)Cc2cccs2)cc1", "note": "(centres undefined)", "Potency": "inconclusive: 2 µM [activator, full curve]"},
      {"smiles": "COc1cccc(C(=O)O/N=C(\\C)c2cnccn2)c1", "activity change, negative = inhibition": "inactive: 22.1% [at 46.1 µM]"},
      {"smiles": "Cc1ccc(-c2nnc3ccccc3c2C(=O)Nc2cccc(Cl)c2)cc1", "Potency": "inconclusive: 2.82 µM [activator, partial curve, poor fit]"},
      {"smiles": "O=C(NNC(=S)NC1CCCCC1)c1cccc(S(=O)(=O)Nc2ccccc2Cl)c1", "Potency": "inconclusive: 8.2 µM [inhibitor, partial curve]"},
      {"smiles": "CC(=O)N(c1c(C)n(C)n(-c2ccccc2)c1=O)C1(C(=O)NC2CCCC2)CCCCC1", "Potency": "inconclusive: 0.517 µM [activator, full curve, poor fit]"},
      {"smiles": "Cc1cc(Nc2ccccc2)n(C(=O)c2ccccc2)n1", "activity change, negative = inhibition": "inactive: 4.13%"},
      {"smiles": "COc1ccc2c(C)cc(SCC(=O)Nc3nsc(-c4ccc(C)cc4)n3)nc2c1", "activity change, negative = inhibition": "inactive: 2.53%"},
      {"smiles": "O=C(Nc1ccc(CN2CCCCC2)cc1)c1ccc2c(c1)OCO2", "activity change, negative = inhibition": "inactive: -10.8%"},
      {"smiles": "Cn1cc(C(=O)NS(=O)(=O)Nc2ccc(Br)cn2)c2ccccc21", "Potency": "inconclusive: 11.2 µM [activator, partial curve, poor fit]"},
      {"smiles": "CCOC(=O)c1c(NC(=O)COC(=O)CCS(=O)(=O)c2ccc(C)cc2)sc(C)c1C", "Potency": "inconclusive: 1.26 µM [inhibitor, single point]"},
      {"smiles": "Brc1ccc(OCCCOc2cccc3cccnc23)cc1", "activity change, negative = inhibition": "inactive: 20.1% [at 46.1 µM]"},
      {"smiles": "CC(C)(C)Cc1nnc(NS(=O)(=O)c2ccc(F)cc2)s1", "Potency": "inconclusive: 0.794 µM [inhibitor, single point]"},
      {"smiles": "COc1cc(/C=C/C(=O)c2ccc(F)cc2)cc(OC)c1OC", "Potency": "inconclusive: 8.91 µM [inhibitor, partial curve, poor fit]"},
      {"smiles": "Cc1ccc(Cn2c(C(=O)O)c(CNCc3cccs3)c3ccc(C)cc32)cc1", "activity change, negative = inhibition": "inactive: 1.12% [at 46.1 µM]"},
      {"smiles": "Cc1nc2nc(-c3ccccc3)cn2nc1C", "Potency": "active: 11.6 µM"},
      {"smiles": "CC(C(=O)OCC(=O)Nc1ccc(S(N)(=O)=O)cc1)N1C(=O)c2ccccc2C1=O", "note": "(centres undefined)", "Potency": "inconclusive: 0.251 µM [activator, partial curve, poor fit]"},
      {"smiles": "Cc1nn(-c2ccccc2)c(N2CCCC2)c1/C=N/NC(=O)c1cc(-c2cccs2)nc2ccccc12", "Potency": "inconclusive: 5.62 µM [inhibitor, full curve, poor fit]"},
      {"smiles": "CCc1ccc2oc(-c3cc(N)cc(C)c3O)nc2c1", "Potency": "inconclusive: 35.5 µM [inhibitor, single point]"},
      {"smiles": "CCN1C(=O)C(=Cc2cccc(OC)c2Oc2ccc([N+](=O)[O-])cc2[N+](=O)[O-])SC1=S", "Potency": "inconclusive: 31.6 µM [inhibitor, single point]"},
      {"smiles": "Cc1c(NC(=O)OCCNC(=O)COc2c(Cl)cccc2Cl)sc(=S)n1C", "activity change, negative = inhibition": "inactive: -1.38%"},
      {"smiles": "c1ccc(-c2nc3cc4ccccc4cc3[nH]2)nc1", "Potency": "active: 2.24 µM"},
      {"smiles": "COc1ccc(C(=O)Nc2nnc(S(=O)(=O)N(CC(C)C)c3ccccc3)s2)cc1", "Potency": "inconclusive: 3.55 µM [activator, partial curve, poor fit]"},
      {"smiles": "COc1cccc(/C=N/Nc2cc(-n3nc(C)cc3-c3ccccc3)ncn2)c1O", "Potency": "inconclusive: 14.6 µM [inhibitor, partial curve, poor fit]"},
      {"smiles": "Cc1nn(-c2ccccc2)c(C)c1-c1nnc(-c2c(C)nn(-c3ccccc3)c2C)o1", "Potency": "inconclusive: 0.708 µM [activator, full curve, poor fit]"},
      {"smiles": "Cc1ccc(C)c(N=C2NC(=O)CS2)c1", "activity change, negative = inhibition": "inactive: -3.32%"},
      {"smiles": "CCOc1ccccc1/C=N/NC(=O)c1cccc(Cl)c1", "activity change, negative = inhibition": "inactive: -2.85%"},
      {"smiles": "CCc1noc(C)c1C(=O)Nc1cc(S(=O)(=O)N2CCCCC2)ccc1N(C)C", "Potency": "inconclusive: 0.501 µM [inhibitor, full curve]"},
      {"smiles": "O=C(Nc1ccc(OC(=O)c2cccs2)cc1)c1ccco1", "Potency": "inconclusive: 29.1 µM [activator, single point]"},
      {"smiles": "O=C(Nc1ccc(-c2nnc3n2CCCCC3)cc1)c1cc2ccccc2o1", "activity change, negative = inhibition": "inactive: 7.97%"},
      {"smiles": "CC(C)Oc1ccc(/C=C(\\NC(=O)/C=C/c2ccco2)C(=O)NCCc2nc3ccccc3[nH]2)cc1", "Potency": "inconclusive: 7.08 µM [inhibitor, partial curve, poor fit]"},
      {"smiles": "CCc1nc(SCc2ccc(OCC(C)C)cc2)n[nH]1", "Potency": "inconclusive: 31.6 µM [inhibitor, single point]"},
      {"smiles": "COc1cc(/C=C2\\SC(=O)NC2=O)ccc1OCc1ccc(Cl)nc1", "Potency": "inconclusive: 35.5 µM [activator, single point]"},
      {"smiles": "Clc1ccccc1-c1csc(Nc2cccnc2)n1", "Potency": "inconclusive: 14.1 µM [activator, partial curve, poor fit]"},
      {"smiles": "CC1(C)Cc2c(c(-c3ccco3)nc3sc4c(NCCN5CCOCC5)ncnc4c23)CO1", "activity change, negative = inhibition": "inactive: 1.24%"}
    ]}
  ]
}
